No constants are given. Whether binding was seen depends on the method and setting. Some entries that bind do so weakly or less than the wild type.
Molecular target: sVEGF-RI, natural soluble form of the FLT VEGF receptor, expressed by baculovirus in Sf9 insect cells (human) (UniProt P17948)
Test: summary of crosslinking and plate binding

The chains behind the UniProt entries cited, without tags or fusion partners. Where a name states a change or a piece, a line headed by the entry shows the natural chain unless it says otherwise.
UniProt P17948: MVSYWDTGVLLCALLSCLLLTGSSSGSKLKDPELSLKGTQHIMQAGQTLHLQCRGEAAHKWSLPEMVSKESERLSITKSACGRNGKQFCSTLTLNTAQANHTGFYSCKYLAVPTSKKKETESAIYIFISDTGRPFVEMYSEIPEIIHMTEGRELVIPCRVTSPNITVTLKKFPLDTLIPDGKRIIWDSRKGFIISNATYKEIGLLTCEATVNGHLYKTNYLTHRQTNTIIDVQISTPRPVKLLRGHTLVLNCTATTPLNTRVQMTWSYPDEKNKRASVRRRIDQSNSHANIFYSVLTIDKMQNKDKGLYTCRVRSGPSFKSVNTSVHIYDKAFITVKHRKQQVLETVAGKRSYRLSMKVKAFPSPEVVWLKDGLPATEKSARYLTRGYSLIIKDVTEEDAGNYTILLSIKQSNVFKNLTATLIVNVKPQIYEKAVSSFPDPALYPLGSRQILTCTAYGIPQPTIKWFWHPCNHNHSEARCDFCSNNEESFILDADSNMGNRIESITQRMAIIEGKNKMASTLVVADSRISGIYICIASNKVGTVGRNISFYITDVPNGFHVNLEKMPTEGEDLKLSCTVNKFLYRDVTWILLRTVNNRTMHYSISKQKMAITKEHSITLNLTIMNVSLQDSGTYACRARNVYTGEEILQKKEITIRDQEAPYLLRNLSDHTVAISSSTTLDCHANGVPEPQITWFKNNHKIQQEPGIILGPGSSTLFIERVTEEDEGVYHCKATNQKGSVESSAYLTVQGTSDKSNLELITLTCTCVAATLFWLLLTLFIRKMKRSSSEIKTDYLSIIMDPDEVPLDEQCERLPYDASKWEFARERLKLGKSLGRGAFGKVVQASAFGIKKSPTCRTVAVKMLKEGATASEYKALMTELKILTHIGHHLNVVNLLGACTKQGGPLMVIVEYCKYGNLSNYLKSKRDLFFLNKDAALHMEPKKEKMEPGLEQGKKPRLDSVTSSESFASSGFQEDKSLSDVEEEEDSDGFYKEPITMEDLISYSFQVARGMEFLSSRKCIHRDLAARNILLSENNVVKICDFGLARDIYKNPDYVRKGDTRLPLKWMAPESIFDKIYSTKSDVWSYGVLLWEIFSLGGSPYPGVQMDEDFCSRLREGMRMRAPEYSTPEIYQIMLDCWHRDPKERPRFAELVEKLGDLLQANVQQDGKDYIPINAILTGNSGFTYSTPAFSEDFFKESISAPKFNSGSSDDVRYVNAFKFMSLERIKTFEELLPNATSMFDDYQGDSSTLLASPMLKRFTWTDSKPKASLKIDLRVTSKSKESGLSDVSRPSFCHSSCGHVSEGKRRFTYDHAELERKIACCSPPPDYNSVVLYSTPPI

B1: recombinant human PlGF (ligand, UniProt P49763-2 19-149, looked up)
chain: LPAVPPQQWALSAGNGSSEVEVVPFQEVWGRSYCRALERLVDVVSEYPSEVEHMFSPSCVSLLRCTGCCGDENLHCVPVETANVTMQLLKIRSGDRPSYVELTFSQHVRCECRPLREKMKPERCGDAVPRR
modifications: 125I label (chloramine T method) in the tracer form
**Q.** With B1 as the binder, how does the binding read?
**A.** Its binding is “binds”.
